Experimental data published in PubChem BioAssay AID1347076 (National Center for Advancing Translational Sciences (NCATS), 2019).
In all, about 400,000 compounds went through this assay and about 13,000 (3.2%) were called active. This list was built around the results that the source calls inconclusive (neither active nor inactive); the mix of calls is not that of the screen. Calls follow the shape of the dose curve; as a rule, active = well fitted cell-killing curve with a large enough effect; inconclusive = small, poorly fitted or top-dose-only effect, or effect the other way; inactive = flat fitted curve, though single readings scatter. Where the call is inconclusive, the potency comes from a doubtful curve fit.

experiment: qHTS assay for MDR1-selective chemotherapeutics: Primary screen using the drug-selected MDR subline cells KB-V1; details: KB-V1 MDR cells viability, CellTiter-Glo, 72 h; activity change, negative = cytotoxicity: at 46.1 µM (top of the series); also: nearly all actives have a fitted effect of over 60% in size
Summary of the method: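 Drug-selected KB-V1 cells, grown in DMEM lacking phenol red with 10% FBS, receive compound titrations; after three days at 37 degrees C, surviving cell ATP is quantified by CellTiter-Glo luminescence and responses normalized and curve-fitted.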
% is scaled to controls: 0 for no effect and ±100 for the full control effect; potency is read from the fitted curve at half-maximal effect.

SMILES	Potency	activity change, negative = cytotoxicity
Cn1c(SCc2ccc(F)cc2Cl)nc2ccccc2c1=O	inconclusive: 18.4 µM [cytotoxic, single point]	–
N/C(=N\OC(=O)Cc1ccccc1)c1cccnc1	inconclusive: 32.6 µM [cytotoxic, single point]	–
CCCC(=O)Nc1ccccc1N1CCN(C(=O)c2ccccc2)CC1	inconclusive: 9.2 µM [cytotoxic, partial curve]	–
COc1cc(CCC(=O)OCC(=O)NC2CCCC(C)C2C)cc(OC)c1OC (stereo not given)	inactive	–
Cc1sc2ncn(CC(=O)N3CCC(C(N)=O)CC3)c(=O)c2c1S(=O)(=O)N1CCOCC1	inconclusive: 29.1 µM [rising, single point]	–
COc1ccc(N(Cc2ccccc2)C(=O)c2ccccc2[N+](=O)[O-])cc1	active: 14.6 µM	–
OC[C@@H]1CN(Cc2ccco2)C[C@H](n2cnc3c(NC4CC4)ncnc32)O1	inactive	–
Cc1cc(NC(=O)CCCn2ccc([N+](=O)[O-])n2)n(Cc2ccc(F)cc2)n1	inconclusive: 29.1 µM [cytotoxic, single point]	–
CCC1(c2ccc(F)cc2)NC(=O)N(CC(=O)NC2CCCC(C)C2C)C1=O (stereo not given)	active: 16.4 µM	–
CCOc1ccc(NC(=O)CSc2nnc(CC)c(CC)n2)cc1	inactive	–
CC(NC(=O)c1cc2ccccc2o1)C(=O)O (stereo not given)	inconclusive: 25.9 µM [rising, single point]	–
CCN(CC)CCNC(=O)C1CCCN(c2nnc(C)c3c(C)n(-c4ccc(Cl)cc4)nc23)C1 (stereo not given)	inconclusive: 1.3 µM [rising, full curve]	–
COc1ccc(N/C=C/C(=O)c2ccc3c(c2)OCO3)cc1OC	inconclusive: 29.1 µM [cytotoxic, single point]	–
CC(C)c1csc(CN2CCC(CO)(Cc3cccc(F)c3)CC2)n1	inconclusive: 9.2 µM [cytotoxic, partial curve, poor fit]	–
CCC(Oc1ccccc1)C(=O)Nc1cc(C(F)(F)F)ccc1N1CCOCC1 (stereo not given)	inconclusive: 9.2 µM [cytotoxic, partial curve, poor fit]	–
Cc1cccc(C)c1NC(=O)C1CCCN(S(=O)(=O)c2c(C)noc2/C=C/N(C)C)C1 (stereo not given)	inactive	–
O=C(Nc1ccc(S(=O)(=O)N2CCCC2)cc1)C1CCN(S(=O)(=O)c2ccc(F)cc2)CC1	inconclusive: 23.1 µM [cytotoxic, single point]	–
CCc1cc(-c2cnnn2Cc2ccccc2)ccc1-c1cn(CC(C)C)nn1	active: 10.3 µM	–
Cc1ccc2c(c1)-c1c(cnn1CC(=O)Nc1ccccc1N1CCN(C)CC1)CO2	inactive	–
CCOc1cc(NC(=O)Nc2ccc(F)cc2)c(OCC)cc1NC(=O)CC	inactive	–
Cc1ccc(S(=O)(=O)CCc2nc3ccccc3s2)cc1C	inactive	–
O=C1OC(c2ccccc2)(c2ccc3cc(O)ccc3c2)c2ccccc21 (stereo not given)	inconclusive: 23.1 µM [cytotoxic, partial curve]	–
Cc1c(C(=O)Nc2ccc(Cl)cc2)c2ccccn2c1C(=O)c1ccc([N+](=O)[O-])cc1	inactive	–

Some of these compounds in order of count of non-hydrogen atoms, smallest number first.
SMILES	Potency	activity change, negative = cytotoxicity
CC(C)c1csc(CN2CCC(CO)(Cc3cccc(F)c3)CC2)n1	inconclusive: 9.2 µM [cytotoxic, partial curve, poor fit]	–
COc1ccc(N(Cc2ccccc2)C(=O)c2ccccc2[N+](=O)[O-])cc1	active: 14.6 µM	–
Cc1cc(NC(=O)CCCn2ccc([N+](=O)[O-])n2)n(Cc2ccc(F)cc2)n1	inconclusive: 29.1 µM [cytotoxic, single point]	–
COc1cc(CCC(=O)OCC(=O)NC2CCCC(C)C2C)cc(OC)c1OC (stereo not given)	inactive	–

The list continues:

SMILES	Potency	activity change, negative = cytotoxicity
Cc1nc(SCC(=O)NCC2CCCO2)c2cc(-c3ccccc3)sc2n1 (stereo not given)	inconclusive: 29.1 µM [cytotoxic, single point]	–
CC(=O)/C(C#N)=C1\NC(=O)C(Cc2ccccc2Cl)S1 (stereo not given)	inconclusive: 2.91 µM [cytotoxic, partial curve, poor fit]	–
CC(CCN1CCN=C1N(C)C)c1ccccc1 (stereo not given)	inconclusive: 29.1 µM [rising, single point]	–
COc1cc([N+](=O)[O-])cc(/C=C2/SC(=S)N(Cc3ccccc3)C2=O)c1O	inconclusive: 18.4 µM [cytotoxic, single point]	–
CC(=O)Nc1ccc(NC(=O)c2sc3nc4n(c(=O)c3c2C)CCCCC4)cc1	inactive	–
CCOC(=O)N/N=C/c1cccc(Cl)c1Cl	–	inconclusive: -45.5%
Cc1ccccc1-n1c(SCC(=O)N/N=C/c2sccc2C)nc2ccccc2c1=O	inconclusive: 20.6 µM [cytotoxic, single point]	–
O=C(CSc1ncccn1)N1CCN(C(c2ccccc2)c2ccccc2)CC1	active: 18.4 µM	–
CS(=O)(=O)N1N=C(c2ccccc2)CC1c1ccc2c(c1)OCO2 (stereo not given)	inactive	–
Cc1c(C(=O)N2CCc3ccccc32)oc2ccccc12	active: 18.4 µM	–
NC(=O)C1CCN(CC(=O)Nc2ccccc2Sc2ccc(Cl)cc2)CC1	inactive	–
CCN(CC)c1ccc2cc(-c3nc4ccccc4n3C)c(=O)oc2c1	active: 0.411 µM	–
CC(=O)OC1CCC2(C)C(CCC3C2CC(OC(C)=O)C2(C)C3C[C@@H]3O[C@]4(CC[C@@H](C)CO4)[C@@H](C)C32)C1 (stereo not given in full)	inconclusive: 16.4 µM [rising, partial curve, poor fit]	–
Brc1ccc(CSc2ccc3nnc(-c4ccccn4)n3n2)cc1	active: 14.6 µM	–
CCC(C)(C)n1nnnc1C(c1cccnc1)N1CCN(c2cccc(C(F)(F)F)c2)CC1 (stereo not given)	inconclusive: 20.6 µM [cytotoxic, single point]	–
Cc1ccc(N(CC(=O)NCCc2ccc(F)cc2)S(=O)(=O)c2ccc(Cl)c([N+](=O)[O-])c2)c(C)c1	inactive	–
COc1ccc(NC(=O)Nc2cccc3c2O[C@H](CN(C)S(=O)(=O)c2ccc(OC)cc2)[C@@H](C)CN([C@H](C)CO)C3=O)cc1	inconclusive: 9.2 µM [rising, partial curve, poor fit]	–
C=CCc1ccc(OCC(O)CN2CCC(Cc3ccccc3)CC2)c(OC)c1 (stereo not given)	active: 20.6 µM	–
CC(=O)c1ccc(N2CCN(C(=O)/C=C/c3ccc(S(=O)(=O)N4CCOCC4)cc3)CC2)cc1	inconclusive: 7.31 µM [cytotoxic, partial curve]	–
CCOC(=O)c1cnn2c1[nH]c(=O)c1ccccc12	inconclusive: 20.6 µM [cytotoxic, partial curve]	–
CC(OC(=O)c1cc(S(=O)(=O)N2CCOCC2)ccc1F)C(=O)NCc1ccc2c(c1)OCO2 (stereo not given)	inconclusive: 16.4 µM [rising, single point]	–
O=C(Nc1ccccc1)c1ccc(F)c(S(=O)(=O)N2CCOCC2)c1	inactive	–
